Data as given in PubChem BioAssay AID1224826 (NIAID, 2016)
The deposit covers about 17,000 reagents; below is an unselected part. About 1,110 of them (6.6%) were called active. 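Active means lowered or raised reporter signal; replicate intensities are raw and not normalised per plate.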 Unmarked entries are inactive. The numbers tell different reagents against one gene apart. No sequences are given here.

- Aim: 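Genes that change LPS-induced Tnf promoter activity in mouse macrophages when knocked down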 (primary screen)
- Cell system: RAW264.7 G9 macrophages from mouse bearing reporters for p65 (GFP) and the Tnf promoter (mCherry)
- Knock-down reagent: siRNA pool against mouse genes, 100 nM
- Time to read-out: 16 h of LPS stimulation, after 2 days of siRNA transfection
- Conditions: bacterial lipopolysaccharide (Salmonella minnesota R595), 10 ng/ml
- Measurement: 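Nuclear mCherry signal of the Tnf promoter reporter measured by imaging after background removal, scaled to each plate median and turned into robust z-scores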
- Direction: Tnf reporter robust z-score: higher = stronger Tnf promoter reporter signal after LPS; Tnf reporter intensity: higher = stronger Tnf promoter reporter signal
- Active means: 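a well counts as active at a score of -1.3 or below (Tlr4 knock-down control median) or above 3 (raised signal); controls and wells holding fewer than 50 cells are excluded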
- Calls: active = Tnf reporter clearly lowered or raised; inactive = no clear change in Tnf reporter

target gene,pool no.,Tnf reporter robust z-score,fewer than 50 cells in well,"Tnf reporter intensity, replicate 1","Tnf reporter intensity, replicate 2"
Zmym2,1,0.35,enough cells in well,242,275
Rab13,1,-0.09,enough cells in well,292,204
Nol7,1,-0.75,enough cells in well,126,124
Or4c124,1,0.26,enough cells in well,166,194
Col4a4,1,-1.38 (active),enough cells in well,152,91.2
Col4a4,2,,fewer than 50 cells per well; well left out of calls,82.7,72.3
Ptpn21,1,-1.38 (active),enough cells in well,121,112
Mrgprb5,1,0.54,enough cells in well,267,125
Dtymk,1,-0.39,enough cells in well,142,161
5830402J09,1,-0.28,enough cells in well,191,104
Dynlt2a1,1,0.79,enough cells in well,137,128
Map2k1,1,-0.87,enough cells in well,138,111
Srsf12,1,3.74 (active),enough cells in well,214,236
Parp4,1,1.15,enough cells in well,298,310
Sorcs2,1,-0.18,enough cells in well,250,212
Saa1,1,0.73,enough cells in well,367,251
Slc4a10,1,,fewer than 50 cells per well; well left out of calls,72.1,58.1
Adk,1,3,enough cells in well,391,175
Sgcz,1,-1.14,enough cells in well,87.3,60.2
Or10a5,1,-0.7,enough cells in well,235,79.6
Bet1l,1,,fewer than 50 cells per well; well left out of calls,113,204
D330005C11Rik,1,-0.75,enough cells in well,112,143
Sfn,1,0.88,enough cells in well,351,287
Gabrp,1,0.33,enough cells in well,286,261

Reformatted: results already given.
| target gene | pool no. | Tnf reporter robust z-score | fewer than 50 cells in well | Tnf reporter intensity, replicate 1 | Tnf reporter intensity, replicate 2 |
| --- | --- | --- | --- | --- | --- |
| 5830402J09 | 1 | -0.28 | enough cells in well | 191 | 104 |
| Dynlt2a1 | 1 | 0.79 | enough cells in well | 137 | 128 |
